The target in test [1] is T1, human ACKR2 on HEK293T cells (HEK-ACKR2) (human) (UniProt O00590).
T1 sequence: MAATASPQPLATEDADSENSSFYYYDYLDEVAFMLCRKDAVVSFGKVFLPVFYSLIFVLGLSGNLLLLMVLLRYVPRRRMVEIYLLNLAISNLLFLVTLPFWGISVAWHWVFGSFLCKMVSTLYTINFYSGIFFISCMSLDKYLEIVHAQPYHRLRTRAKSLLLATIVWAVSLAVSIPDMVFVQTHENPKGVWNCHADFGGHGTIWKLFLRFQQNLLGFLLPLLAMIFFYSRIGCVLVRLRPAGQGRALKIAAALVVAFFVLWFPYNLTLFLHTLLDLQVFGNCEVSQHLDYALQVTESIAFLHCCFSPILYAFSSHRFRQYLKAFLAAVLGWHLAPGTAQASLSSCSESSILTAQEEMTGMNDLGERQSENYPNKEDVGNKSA
The test is described as follows: flow cytometry on cells; binding competition on HEK-ACKR2 cells: CXCL10-Cy5 (100 ng/mL) with unlabelled chemokines (50 nM); signal without unlabelled chemokine = 100% binding; only the binder purified. A general note: In flow cytometry, cells or beads pass a laser one at a time.

Sequences of proteins named here, by UniProt entry; tags and fusion partners are left off. Residues count along the entry.
UniProt P49682: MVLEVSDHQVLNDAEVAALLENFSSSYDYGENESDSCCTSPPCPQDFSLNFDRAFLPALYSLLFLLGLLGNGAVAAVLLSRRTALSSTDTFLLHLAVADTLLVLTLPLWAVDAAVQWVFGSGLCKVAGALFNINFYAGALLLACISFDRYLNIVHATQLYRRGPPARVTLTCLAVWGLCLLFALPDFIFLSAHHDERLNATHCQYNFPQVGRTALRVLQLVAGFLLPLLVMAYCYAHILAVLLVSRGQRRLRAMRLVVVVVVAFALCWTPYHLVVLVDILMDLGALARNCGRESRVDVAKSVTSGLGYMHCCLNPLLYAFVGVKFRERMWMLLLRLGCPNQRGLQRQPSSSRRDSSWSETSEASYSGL
UniProt P13501, residues 24-91: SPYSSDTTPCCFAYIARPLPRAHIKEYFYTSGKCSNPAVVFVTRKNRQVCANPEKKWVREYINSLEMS
UniProt P02778, residues 22-98: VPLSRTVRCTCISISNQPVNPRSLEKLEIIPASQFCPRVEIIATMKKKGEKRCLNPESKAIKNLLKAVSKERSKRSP
UniProt P49407: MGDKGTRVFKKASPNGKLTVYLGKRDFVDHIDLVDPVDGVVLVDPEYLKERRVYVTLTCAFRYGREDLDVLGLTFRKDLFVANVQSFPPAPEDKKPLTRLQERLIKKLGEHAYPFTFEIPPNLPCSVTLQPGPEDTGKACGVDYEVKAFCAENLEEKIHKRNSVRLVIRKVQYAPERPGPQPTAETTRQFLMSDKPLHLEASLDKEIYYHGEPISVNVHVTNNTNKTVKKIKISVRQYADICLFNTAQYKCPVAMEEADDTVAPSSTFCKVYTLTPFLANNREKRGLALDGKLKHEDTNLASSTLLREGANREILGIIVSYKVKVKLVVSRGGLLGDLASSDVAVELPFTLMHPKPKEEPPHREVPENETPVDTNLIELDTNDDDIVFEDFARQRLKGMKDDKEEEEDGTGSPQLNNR
UniProt P32121: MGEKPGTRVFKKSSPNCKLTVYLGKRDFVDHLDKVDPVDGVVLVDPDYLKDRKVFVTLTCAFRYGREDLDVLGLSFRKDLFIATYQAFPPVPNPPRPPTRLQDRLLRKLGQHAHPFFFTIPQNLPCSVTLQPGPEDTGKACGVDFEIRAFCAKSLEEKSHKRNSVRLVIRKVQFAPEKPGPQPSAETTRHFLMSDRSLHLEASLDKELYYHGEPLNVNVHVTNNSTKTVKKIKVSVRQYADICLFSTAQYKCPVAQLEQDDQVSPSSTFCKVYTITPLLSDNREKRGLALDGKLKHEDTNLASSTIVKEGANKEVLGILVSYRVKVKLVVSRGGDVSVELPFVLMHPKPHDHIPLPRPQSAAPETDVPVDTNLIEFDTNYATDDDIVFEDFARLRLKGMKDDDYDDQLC

Test [2] addresses T1, human ACKR2 on HEK293T cells (HEK-ACKR2) (human). The test is described as follows: flow cytometry on cells; imaging flow cytometry (ImageStream): uptake of Cy5-labelled CXCL10 (100 nM), 45 min at 37 °C, by HEK293T, HEK-ACKR2 or HEK cells transfected with ACKR2 or CXCR3 vectors; with or without 15 min pre-treatment with unlabelled CCL5 (200 nM); only the binder purified.
The target of test [3] is T2, ACKR2 C-terminally fused to SmBiT (human) (UniProt O00590).
T2 sequence: T1 sequence
The test is described as follows: split reporter; NanoBiT in live U87.MG cells co-transfected with ACKR2-SmBiT and LgBiT-β-arrestin-1; signal on addition of chemokines.

For test [4], the target named is T2, ACKR2 C-terminally fused to SmBiT (human). The test is described as follows: split reporter; NanoBiT in live HEK293T cells co-transfected with receptor-SmBiT and LgBiT-β-arrestin-1/2; signal on addition of chemokines, averaged over 20 min.
Test [5] deals with CXCR3 C-terminally fused to SmBiT (human) (UniProt P49682). Described as above.
Test [6] concerns the target T3, ACKR2 C-terminally fused to mNeonGreen (human) (UniProt O00590).
T3 sequence: T1 sequence
Briefly: FRET or BRET; NanoBRET in live HEK293T cells co-transfected with receptor-mNeonGreen and Nanoluciferase-β-arrestin-1; signal on addition of chemokines. A general note: Bioluminescence resonance energy transfer reports proximity on the nanometre scale.

In test [7] the target is CXCR3 construct of the NanoBRET β-arrestin-1 recruitment assay (human) (UniProt P49682). Described as above.
The target in test [8] is T4, mouse ACKR2 on B16.F10 melanoma cells (mouse (endogenous in B16.F10)) (UniProt O08707).
T4 sequence: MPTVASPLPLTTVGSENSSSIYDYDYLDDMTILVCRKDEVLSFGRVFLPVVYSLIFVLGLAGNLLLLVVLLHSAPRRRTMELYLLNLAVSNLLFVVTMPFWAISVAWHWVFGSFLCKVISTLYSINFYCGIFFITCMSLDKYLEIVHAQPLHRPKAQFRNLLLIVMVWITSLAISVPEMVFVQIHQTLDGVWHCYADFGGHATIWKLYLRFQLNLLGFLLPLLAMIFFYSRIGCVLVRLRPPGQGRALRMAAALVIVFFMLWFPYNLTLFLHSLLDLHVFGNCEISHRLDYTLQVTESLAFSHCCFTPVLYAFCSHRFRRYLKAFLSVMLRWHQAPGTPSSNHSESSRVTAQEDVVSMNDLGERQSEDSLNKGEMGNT
The test is described as follows: flow cytometry on cells; uptake of Cy5-labelled mCXCL10 (100 nM), 45 min at 37 °C, by HEK-mACKR2 or B16.F10 cells, with or without polyclonal goat anti-mACKR2 antibody (50 µg/mL) or goat IgG control; mean fluorescence intensity; only the binder purified.

Test [9] addresses T5, mouse ACKR2 on HEK293T cells (HEK-mACKR2) (mouse) (UniProt O08707).
T5 sequence: T4 sequence
The description is as above.

Consider six molecules from PMC7958614.

These are yes or no findings as the source states them, for the method shown. For some assays here: In cells and extracts the contact can be indirect. Some binding calls cover weakened binding; strength is not graded here. For some assays here: Tags and fused reporters may be left off the sequences shown.

Regarding “CCL5 (unlabelled) (from UniProt P13501 24-91) (ligand)”, the binding entry in [1] is recorded as “binds”.
In the case of “Cy5-labelled CXCL10 (from UniProt P02778 22-98) (ligand)”, the binding entry in [1] and in test [2] was “binds” in each case.
On to “human β-arrestin-1 N-terminally fused to LgBiT (from UniProt P49407 1-418)”, for which the binding entry in [3], in test [4] and in test [5] was “binds” in each case.
“human β-arrestin-2 N-terminally fused to LgBiT (from UniProt P32121 1-409)”: in test [4], the binding entry is “binds”.
For the molecule “β-arrestin-1 N-terminally fused to Nanoluciferase (from UniProt P49407 1-418)”, the binding entry in test [6] and in [7] was “binds” each time.

B1: Cy5-labelled mouse CXCL10 (ligand, UniProt P17515 22-98)
chain: IPLARTVRCNCIHIDDGPVRMRAIGKLEIIPASLSCPRVEIIATMKKNDEQRCLNPESKTIKNLMKAFSQKRSKRAP
modifications: Cy5 label, site not stated
As to B1, the binding result in test [8] and in test [9] was “binds” in each case.
